From the supplement of paper PMC10849652
The other results are listed elsewhere or left out.

Chains of the proteins cited; added tags and fusions are not shown. Lines headed by an entry give the natural chain unless they say otherwise; changes in a name come on top.
UniProt O60701: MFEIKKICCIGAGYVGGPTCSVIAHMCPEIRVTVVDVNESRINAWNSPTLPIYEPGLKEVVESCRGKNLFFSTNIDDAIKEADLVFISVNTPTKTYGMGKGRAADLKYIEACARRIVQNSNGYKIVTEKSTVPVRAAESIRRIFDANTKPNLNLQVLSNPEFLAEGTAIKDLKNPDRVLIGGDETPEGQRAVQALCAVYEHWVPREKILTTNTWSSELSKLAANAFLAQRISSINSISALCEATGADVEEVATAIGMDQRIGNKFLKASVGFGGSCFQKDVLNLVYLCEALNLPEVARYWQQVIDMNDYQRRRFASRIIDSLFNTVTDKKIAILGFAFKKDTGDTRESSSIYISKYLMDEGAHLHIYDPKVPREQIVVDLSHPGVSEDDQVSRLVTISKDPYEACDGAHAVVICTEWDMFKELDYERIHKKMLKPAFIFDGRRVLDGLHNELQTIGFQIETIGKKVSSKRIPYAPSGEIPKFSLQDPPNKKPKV
UniProt Q9Y6I4: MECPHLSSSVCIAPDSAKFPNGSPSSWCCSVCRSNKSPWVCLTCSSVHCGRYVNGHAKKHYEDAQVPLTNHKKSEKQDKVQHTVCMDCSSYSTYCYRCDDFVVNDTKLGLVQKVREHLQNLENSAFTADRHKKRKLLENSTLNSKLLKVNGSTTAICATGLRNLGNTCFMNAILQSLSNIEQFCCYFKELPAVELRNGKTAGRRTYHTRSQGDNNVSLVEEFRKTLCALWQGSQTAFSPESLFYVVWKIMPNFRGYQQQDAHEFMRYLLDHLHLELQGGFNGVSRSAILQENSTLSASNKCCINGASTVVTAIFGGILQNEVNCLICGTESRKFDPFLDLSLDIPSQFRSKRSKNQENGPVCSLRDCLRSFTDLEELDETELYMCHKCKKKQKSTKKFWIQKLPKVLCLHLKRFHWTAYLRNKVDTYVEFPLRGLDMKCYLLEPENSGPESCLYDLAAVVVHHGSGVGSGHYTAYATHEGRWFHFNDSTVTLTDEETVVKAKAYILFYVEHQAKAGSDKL
UniProt Q8TAA9: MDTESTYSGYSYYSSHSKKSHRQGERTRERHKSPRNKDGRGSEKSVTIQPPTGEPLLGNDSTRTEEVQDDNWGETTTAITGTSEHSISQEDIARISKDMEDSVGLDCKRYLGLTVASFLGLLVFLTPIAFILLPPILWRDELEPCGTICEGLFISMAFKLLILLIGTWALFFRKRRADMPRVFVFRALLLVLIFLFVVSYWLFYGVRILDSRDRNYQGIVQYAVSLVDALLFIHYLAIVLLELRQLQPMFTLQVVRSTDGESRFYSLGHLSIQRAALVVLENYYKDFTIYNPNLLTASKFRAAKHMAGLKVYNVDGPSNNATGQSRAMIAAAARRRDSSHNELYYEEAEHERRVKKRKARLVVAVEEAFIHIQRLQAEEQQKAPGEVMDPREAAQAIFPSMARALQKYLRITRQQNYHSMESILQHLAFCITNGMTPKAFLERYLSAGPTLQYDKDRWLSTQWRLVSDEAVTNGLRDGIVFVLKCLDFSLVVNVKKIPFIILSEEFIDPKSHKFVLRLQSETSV
UniProt Q92890: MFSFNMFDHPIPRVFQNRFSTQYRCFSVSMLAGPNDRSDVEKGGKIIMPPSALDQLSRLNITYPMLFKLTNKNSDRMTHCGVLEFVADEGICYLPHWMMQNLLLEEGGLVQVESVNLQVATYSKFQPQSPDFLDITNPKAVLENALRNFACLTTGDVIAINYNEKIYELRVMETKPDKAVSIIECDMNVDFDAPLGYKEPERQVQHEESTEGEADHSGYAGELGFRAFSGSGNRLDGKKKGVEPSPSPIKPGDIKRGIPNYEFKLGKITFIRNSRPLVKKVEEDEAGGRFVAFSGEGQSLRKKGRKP
UniProt Q86UV5: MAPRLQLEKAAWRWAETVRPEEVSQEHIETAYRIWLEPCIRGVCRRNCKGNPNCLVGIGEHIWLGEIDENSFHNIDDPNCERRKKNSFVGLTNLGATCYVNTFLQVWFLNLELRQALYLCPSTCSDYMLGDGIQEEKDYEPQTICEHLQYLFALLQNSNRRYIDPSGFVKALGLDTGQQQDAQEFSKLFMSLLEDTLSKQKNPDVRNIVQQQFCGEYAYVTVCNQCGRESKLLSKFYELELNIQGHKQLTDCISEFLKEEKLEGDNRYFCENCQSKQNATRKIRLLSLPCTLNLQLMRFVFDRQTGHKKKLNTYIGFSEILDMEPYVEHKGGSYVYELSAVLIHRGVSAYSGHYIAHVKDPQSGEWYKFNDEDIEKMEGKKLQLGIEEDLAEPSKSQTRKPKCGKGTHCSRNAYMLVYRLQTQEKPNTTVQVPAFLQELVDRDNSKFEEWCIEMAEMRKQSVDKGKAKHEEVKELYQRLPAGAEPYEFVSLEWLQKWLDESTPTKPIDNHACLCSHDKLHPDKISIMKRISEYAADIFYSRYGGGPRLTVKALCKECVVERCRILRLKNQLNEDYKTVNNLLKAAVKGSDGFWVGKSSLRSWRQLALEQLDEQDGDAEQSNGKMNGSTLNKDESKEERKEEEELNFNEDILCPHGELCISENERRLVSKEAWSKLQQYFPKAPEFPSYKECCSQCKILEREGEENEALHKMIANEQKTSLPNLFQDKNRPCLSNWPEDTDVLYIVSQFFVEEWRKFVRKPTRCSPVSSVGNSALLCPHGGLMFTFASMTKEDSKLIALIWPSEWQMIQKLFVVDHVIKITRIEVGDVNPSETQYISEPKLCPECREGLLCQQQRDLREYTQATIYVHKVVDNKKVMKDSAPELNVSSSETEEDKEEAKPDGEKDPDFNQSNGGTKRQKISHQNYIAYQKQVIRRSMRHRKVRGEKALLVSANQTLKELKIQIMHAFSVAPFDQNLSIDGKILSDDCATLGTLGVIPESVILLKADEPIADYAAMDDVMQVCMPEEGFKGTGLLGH
UniProt Q16880: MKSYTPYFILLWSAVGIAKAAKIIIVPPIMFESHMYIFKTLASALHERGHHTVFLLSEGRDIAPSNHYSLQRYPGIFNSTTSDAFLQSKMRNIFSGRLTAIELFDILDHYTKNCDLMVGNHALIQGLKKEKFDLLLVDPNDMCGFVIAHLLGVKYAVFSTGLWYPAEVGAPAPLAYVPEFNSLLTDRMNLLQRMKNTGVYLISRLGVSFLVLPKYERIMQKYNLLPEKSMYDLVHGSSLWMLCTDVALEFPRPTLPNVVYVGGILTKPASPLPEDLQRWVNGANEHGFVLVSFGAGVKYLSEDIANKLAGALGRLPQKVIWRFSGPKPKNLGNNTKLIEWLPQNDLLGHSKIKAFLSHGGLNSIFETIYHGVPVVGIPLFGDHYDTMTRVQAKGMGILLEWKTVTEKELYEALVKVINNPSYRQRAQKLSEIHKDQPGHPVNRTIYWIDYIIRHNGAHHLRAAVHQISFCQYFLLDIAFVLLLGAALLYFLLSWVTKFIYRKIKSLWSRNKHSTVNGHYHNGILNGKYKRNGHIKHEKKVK
UniProt Q96BW1: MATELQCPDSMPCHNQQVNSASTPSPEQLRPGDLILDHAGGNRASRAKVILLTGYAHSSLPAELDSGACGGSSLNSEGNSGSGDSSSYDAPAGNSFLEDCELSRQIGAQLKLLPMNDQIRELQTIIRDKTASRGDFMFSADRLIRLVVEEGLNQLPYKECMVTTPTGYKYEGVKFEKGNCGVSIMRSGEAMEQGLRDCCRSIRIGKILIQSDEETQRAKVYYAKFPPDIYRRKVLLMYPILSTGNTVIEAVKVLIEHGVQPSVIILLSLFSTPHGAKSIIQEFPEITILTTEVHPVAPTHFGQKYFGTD
UniProt Q9BZI7: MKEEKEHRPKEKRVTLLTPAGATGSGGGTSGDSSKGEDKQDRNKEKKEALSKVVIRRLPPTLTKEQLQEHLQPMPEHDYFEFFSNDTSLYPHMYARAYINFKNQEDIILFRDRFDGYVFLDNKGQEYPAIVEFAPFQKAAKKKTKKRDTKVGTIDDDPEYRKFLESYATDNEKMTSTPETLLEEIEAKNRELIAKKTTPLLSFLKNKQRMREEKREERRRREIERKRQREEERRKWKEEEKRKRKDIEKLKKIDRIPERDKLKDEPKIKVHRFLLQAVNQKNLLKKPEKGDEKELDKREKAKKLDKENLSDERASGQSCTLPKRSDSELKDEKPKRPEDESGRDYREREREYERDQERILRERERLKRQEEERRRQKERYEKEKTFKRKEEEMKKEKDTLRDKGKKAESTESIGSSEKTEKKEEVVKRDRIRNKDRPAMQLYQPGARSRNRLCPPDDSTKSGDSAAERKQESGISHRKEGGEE
UniProt P45974: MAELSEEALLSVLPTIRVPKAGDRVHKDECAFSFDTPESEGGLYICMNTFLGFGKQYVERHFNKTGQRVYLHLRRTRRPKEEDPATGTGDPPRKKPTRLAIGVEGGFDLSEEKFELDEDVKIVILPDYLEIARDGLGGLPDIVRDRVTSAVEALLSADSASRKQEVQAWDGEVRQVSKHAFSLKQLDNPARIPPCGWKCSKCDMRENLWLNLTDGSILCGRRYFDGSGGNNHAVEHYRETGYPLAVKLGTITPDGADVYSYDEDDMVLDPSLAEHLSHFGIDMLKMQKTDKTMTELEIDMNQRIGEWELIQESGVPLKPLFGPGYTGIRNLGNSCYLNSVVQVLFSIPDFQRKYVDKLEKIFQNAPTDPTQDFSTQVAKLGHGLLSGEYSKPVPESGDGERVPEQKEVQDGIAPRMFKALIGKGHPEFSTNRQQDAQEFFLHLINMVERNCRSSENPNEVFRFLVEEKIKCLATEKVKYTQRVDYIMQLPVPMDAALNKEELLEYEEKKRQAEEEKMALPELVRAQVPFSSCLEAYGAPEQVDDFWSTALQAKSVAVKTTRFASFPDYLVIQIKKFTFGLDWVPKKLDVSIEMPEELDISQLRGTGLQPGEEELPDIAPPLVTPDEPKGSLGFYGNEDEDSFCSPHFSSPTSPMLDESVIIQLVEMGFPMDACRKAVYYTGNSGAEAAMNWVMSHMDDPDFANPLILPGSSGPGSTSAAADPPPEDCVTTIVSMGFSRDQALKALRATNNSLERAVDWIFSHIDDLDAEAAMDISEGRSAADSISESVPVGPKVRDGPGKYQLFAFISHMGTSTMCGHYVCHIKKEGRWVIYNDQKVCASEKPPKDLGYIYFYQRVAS
UniProt P06132: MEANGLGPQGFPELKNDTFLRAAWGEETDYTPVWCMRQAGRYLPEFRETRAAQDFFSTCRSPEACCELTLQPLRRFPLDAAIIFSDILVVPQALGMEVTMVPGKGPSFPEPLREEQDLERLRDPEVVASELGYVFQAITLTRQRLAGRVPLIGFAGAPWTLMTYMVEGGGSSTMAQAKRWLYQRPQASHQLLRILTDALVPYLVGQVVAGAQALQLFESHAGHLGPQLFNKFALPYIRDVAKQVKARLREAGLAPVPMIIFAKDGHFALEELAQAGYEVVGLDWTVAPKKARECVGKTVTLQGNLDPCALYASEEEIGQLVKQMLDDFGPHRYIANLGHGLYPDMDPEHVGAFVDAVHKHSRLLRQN
UniProt Q15386: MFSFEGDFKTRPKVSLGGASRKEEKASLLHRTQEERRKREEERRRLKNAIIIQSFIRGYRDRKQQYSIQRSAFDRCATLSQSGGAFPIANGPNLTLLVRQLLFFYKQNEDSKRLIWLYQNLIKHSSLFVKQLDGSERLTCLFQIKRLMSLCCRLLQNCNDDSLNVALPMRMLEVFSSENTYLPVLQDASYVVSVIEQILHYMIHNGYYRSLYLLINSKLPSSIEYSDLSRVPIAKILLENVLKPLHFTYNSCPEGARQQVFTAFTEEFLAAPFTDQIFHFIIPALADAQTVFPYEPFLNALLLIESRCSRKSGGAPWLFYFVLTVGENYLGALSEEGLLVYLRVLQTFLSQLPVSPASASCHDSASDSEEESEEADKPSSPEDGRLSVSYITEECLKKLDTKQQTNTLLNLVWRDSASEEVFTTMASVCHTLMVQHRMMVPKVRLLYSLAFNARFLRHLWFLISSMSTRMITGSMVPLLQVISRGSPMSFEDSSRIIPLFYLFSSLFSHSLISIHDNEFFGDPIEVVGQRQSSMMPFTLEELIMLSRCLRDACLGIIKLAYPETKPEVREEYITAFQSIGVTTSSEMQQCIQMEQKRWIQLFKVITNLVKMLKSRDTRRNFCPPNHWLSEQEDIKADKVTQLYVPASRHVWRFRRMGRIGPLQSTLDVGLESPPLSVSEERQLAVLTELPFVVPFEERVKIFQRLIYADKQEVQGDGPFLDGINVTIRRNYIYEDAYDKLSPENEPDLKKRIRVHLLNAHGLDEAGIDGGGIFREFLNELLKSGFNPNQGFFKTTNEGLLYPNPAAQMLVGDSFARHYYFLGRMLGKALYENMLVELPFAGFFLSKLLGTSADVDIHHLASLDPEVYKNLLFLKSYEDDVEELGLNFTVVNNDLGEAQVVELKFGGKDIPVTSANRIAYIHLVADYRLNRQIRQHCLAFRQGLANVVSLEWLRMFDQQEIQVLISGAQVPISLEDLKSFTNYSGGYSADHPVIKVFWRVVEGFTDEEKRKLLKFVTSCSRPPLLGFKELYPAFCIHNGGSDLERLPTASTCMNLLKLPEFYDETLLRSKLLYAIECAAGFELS

What was measured:
Assay in all cases: log2 fold change, soluble protein after heating vs DMSO (PISA); higher = thermal stabilisation; K562 cells, 10 uM, 30 min; active = over 0.2 and 3.5 SD of the protein, either way, in both replicates (recomputed)
[1] = compound: CC1=C(C=C(C=C1)NC(=O)C2=CC(=CC=C2)C(C)(C)C#N)NC3=CC4=C(C=C3)N=CN(C4=O)C
In short: (§1)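 K562 cells at 2×10^6 cells/mL were given 10 μM compound for 30 min. Aliquots then went through 3 min of heating across 48°C-58°C, were pooled, and were extracted in PBS with 0.5% NP-40 at 4°C, and the supernatant after 21,000xg for 90 min was quantified by TMTpro 16plex LC-MS/MS with channel sums equalised. Thermal stability relative to control samples, from duplicates, is given as log2 fold change.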

[2] = compound: CC1=C(C=C(C=C1)NC(=O)C2=CC(=CC=C2)N(C)C)NC(=O)C3=CC=C(C=C3)O
In short: as §1

[3] = compound: CC1=CC=C(C=C1)SC2=C3C=C(SC3=CN=C2)C(=O)N
In short: as §1

[4] = compound: CC1=NC(=CC=C1)C2=C(N=C(N2)C(C)(C)C)C3=CC4=NC=CN=C4C=C3
In short: as §1

Nexturastat A = compound: CCCCN(Cc1ccc(C(=O)NO)cc1)C(=O)Nc1ccccc1 [Nexturastat A]
In short: as §1

vemurafenib = compound: CCCS(=O)(=O)Nc1ccc(F)c(C(=O)c2c[nH]c3ncc(-c4ccc(Cl)cc4)cc23)c1F [vemurafenib]
In short: as §1

[5] = compound: CCCS(=O)(=O)Nc1ccc(F)c(C(=O)c2c[nH]c3ncc(Cl)cc23)c1F
In short: as §1

[6] = compound: CCCc1cc(C)[nH]c(=O)c1CNC(=O)c1cc(-c2ccnc(N3CCN(C)CC3)c2)cc2c1cnn2C(C)C
In short: as §1

givinostat = compound: CCN(CC)Cc1ccc2cc(COC(=O)Nc3ccc(C(=O)NO)cc3)ccc2c1 [givinostat]
In short: as §1

barasertib = compound: CCN(CCCOc1ccc2c(Nc3cc(CC(=O)Nc4cccc(F)c4)[nH]n3)ncnc2c1)CCOP(=O)(O)O [barasertib]
In short: as §1

Measured: log2 fold change

UGDH (UniProt O60701)
inactive: [1] 0.039 | [2] -0.005 | [3] 0.028 | [4] 0.083 | Nexturastat A -0.064 | vemurafenib 0.043 | [5] 0.102 | [6] -0.097 | givinostat 0.031 | barasertib 0.079

VARS2, A0A0G2JL52
inactive: [1] -0.003 | [2] 0.005 | [3] -0.025 | [4] 0.012 | Nexturastat A 0.005 | vemurafenib 0.03 | [5] 0.047 | [6] -0.018 | givinostat -0.015 | barasertib 0.052

UQCRQ (UniProt O14949)
inactive: [1] -0.002 | [2] -0.015 | [3] 0.018 | [4] 0.004 | Nexturastat A 0.022 | vemurafenib -0.007 | [5] -0.014 | [6] -0.03 | givinostat -0.045 | barasertib 0.013

USP3 (UniProt Q9Y6I4)
inactive: [1] 0.026 | [2] -0.016 | [3] 0.085 | [4] 0.069 | Nexturastat A 0.01 | vemurafenib 0.112 | [5] 0.192 | [6] -0.069 | givinostat -0.022 | barasertib 0.067

UNC13D isoform 3 (UniProt Q70J99)
inactive: [1] 0.001 | [2] 0.037 | [3] -0.084 | [4] -0.123 | Nexturastat A 0.255 | vemurafenib 0.02 | [5] 0.085 | [6] 0.116 | givinostat 0.214 | barasertib -0.073

VANGL1 (UniProt Q8TAA9)
inactive: [1] 0 | [2] 0.041 | [3] 0.069 | [4] 0.01 | Nexturastat A -0.139 | vemurafenib 0.077 | [5] 0.031 | [6] -0.117 | givinostat -0.04 | barasertib 0.066

UBE4B isoform 4 (UniProt O95155)
inactive: [1] 0.007 | [2] -0.012 | [3] 0.001 | [4] 0.014 | Nexturastat A -0.017 | vemurafenib 0.024 | [5] 0.045 | [6] -0.008 | givinostat 0.008 | barasertib 0.042

UFD1 isoform 1 (UniProt Q92890)
inactive: [1] 0.02 | [2] -0.025 | [3] 0.037 | [4] 0.106 | Nexturastat A 0.015 | vemurafenib 0 | [5] 0.018 | [6] -0.015 | givinostat 0.032 | barasertib -0.011

USP48 isoform 8 (UniProt Q86UV5)
inactive: [1] 0.128 | [2] -0.094 | [3] -0.054 | [4] 0.119 | Nexturastat A -0.006 | vemurafenib 0.162 | [5] 0.142 | [6] 0.103 | givinostat 0.144 | barasertib 0.14

USE1 (UniProt Q9NZ43)
inactive: [1] -0.011 | [2] -0.03 | [3] -0.005 | [4] -0.043 | Nexturastat A 0.115 | vemurafenib 0.006 | [5] 0.002 | [6] 0.018 | givinostat -0.005 | barasertib 0.013

UQCC2 (UniProt Q9BRT2)
inactive: [1] 0.01 | [2] 0.003 | [3] 0.089 | [4] 0.074 | Nexturastat A -0.044 | vemurafenib 0.125 | [5] -0.027 | [6] 0.08 | givinostat -0.001 | barasertib 0.024

USF1 (UniProt P22415)
inactive: [1] -0.012 | [2] -0.048 | [3] 0.013 | [4] -0.047 | Nexturastat A -0.118 | vemurafenib -0.032 | [5] 0.015 | [6] 0.026 | givinostat -0.03 | barasertib 0.294

UGT8 (UniProt Q16880)
inactive: [1] 0.289 | [2] -0.02 | [3] 0.021 | [4] -0.098 | Nexturastat A -0.042 | vemurafenib -0.039 | [5] -0.083 | [6] 0.211 | givinostat -0.053 | barasertib -0.129

USP15 (UniProt Q9Y4E8)
inactive: [1] 0.025 | [2] -0.044 | [3] 0.023 | [4] 0.027 | Nexturastat A -0.001 | vemurafenib 0.04 | [5] 0.053 | [6] 0.041 | givinostat 0.025 | barasertib 0.06

UCKL1 (UniProt Q9NWZ5)
inactive: [1] 0.088 | [2] 0.001 | [3] -0.031 | [4] 0.022 | Nexturastat A -0.046 | vemurafenib 0.006 | [5] -0.011 | [6] -0.081 | givinostat 0.002 | barasertib 0.045

UHRF1BP1 (UniProt Q6BDS2)
inactive: [1] -0.068 | [2] -0.039 | [3] -0.012 | [4] -0.011 | Nexturastat A 0.043 | vemurafenib -0.035 | [5] -0.043 | [6] -0.022 | givinostat -0.012 | barasertib -0.009

USP9X (UniProt Q93008)
inactive: [1] -0.015 | [2] -0.02 | [3] -0.009 | [4] 0.023 | Nexturastat A 0.015 | vemurafenib 0.019 | [5] 0.075 | [6] 0.007 | givinostat 0.025 | barasertib 0.043

VBP1 (UniProt P61758)
inactive: [1] -0.035 | [2] 0.035 | [3] 0.014 | [4] -0.003 | Nexturastat A -0.082 | vemurafenib -0.019 | [5] -0.011 | [6] -0.017 | givinostat -0.014 | barasertib 0.008

UPRT (UniProt Q96BW1)
inactive: [1] 0.036 | [2] 0.027 | [3] -0.032 | [4] 0.059 | Nexturastat A -0.093 | vemurafenib -0.011 | [5] -0.018 | [6] -0.056 | givinostat 0.022 | barasertib -0.039

UBR4 isoform 2 (UniProt Q5T4S7)
inactive: [1] -0.001 | [2] -0.04 | [3] -0.04 | [4] -0.009 | Nexturastat A 0.15 | vemurafenib -0.022 | [5] 0.019 | [6] 0.051 | givinostat 0.016 | barasertib 0.014

UQCRB (UniProt P14927)
inactive: [1] -0.043 | [2] 0.017 | [3] 0.037 | [4] 0.04 | Nexturastat A -0.021 | vemurafenib -0.027 | [5] -0.059 | [6] -0.025 | givinostat -0.032 | barasertib 0.002

UPF3B (UniProt Q9BZI7)
inactive: [1] -0.047 | [2] -0.004 | [3] 0 | [4] -0.053 | Nexturastat A 0.29 | vemurafenib -0.108 | [5] -0.069 | [6] 0.139 | givinostat 0.03 | barasertib -0.058

VCL (UniProt P18206)
inactive: [1] 0.012 | [2] 0.022 | [3] 0.012 | [4] 0.023 | Nexturastat A -0.091 | vemurafenib 0.005 | [5] -0.015 | [6] 0.008 | givinostat -0.018 | barasertib -0.015

VAMP4 (UniProt O75379)
inactive: [1] -0.059 | [2] 0.002 | [3] -0.046 | [4] -0.017 | Nexturastat A 0.174 | vemurafenib 0.022 | [5] -0.056 | [6] -0.031 | givinostat -0.042 | barasertib -0.025

UTP3 (UniProt Q9NQZ2)
inactive: [1] -0.016 | [2] 0.008 | [3] -0.094 | [4] -0.048 | Nexturastat A 0.308 | vemurafenib 0.004 | [5] 0.022 | [6] 0.101 | givinostat 0.075 | barasertib -0.08

USP5 (UniProt P45974)
inactive: [1] 0.01 | [2] -0.019 | [3] -0.02 | [4] 0.022 | Nexturastat A -0.02 | vemurafenib 0.013 | [5] -0.069 | [6] -0.065 | givinostat -0.003 | barasertib 0.031

VAPA isoform 2 (UniProt Q9P0L0)
inactive: [1] -0.023 | [2] 0 | [3] -0.011 | [4] 0.022 | Nexturastat A 0.059 | vemurafenib -0.006 | [5] -0.007 | [6] -0.008 | givinostat 0.028 | barasertib 0

2 neighbouring records out of the list so far:
UQCRQ (UniProt O14949)
inactive: [1] -0.002 | [2] -0.015 | [3] 0.018 | [4] 0.004 | Nexturastat A 0.022 | vemurafenib -0.007 | [5] -0.014 | [6] -0.03 | givinostat -0.045 | barasertib 0.013

USP3 (UniProt Q9Y6I4)
inactive: [1] 0.026 | [2] -0.016 | [3] 0.085 | [4] 0.069 | Nexturastat A 0.01 | vemurafenib 0.112 | [5] 0.192 | [6] -0.069 | givinostat -0.022 | barasertib 0.067

Additional records follow.

UROD (UniProt P06132)
inactive: [1] -0.045 | [2] 0.022 | [3] 0.013 | [4] 0.029 | Nexturastat A -0.069 | vemurafenib 0.001 | [5] 0.044 | [6] 0.027 | givinostat -0.027 | barasertib 0.001

UBE3C (UniProt Q15386)
inactive: [1] 0.028 | [2] -0.008 | [3] 0.021 | [4] -0.016 | Nexturastat A 0.035 | vemurafenib -0.033 | [5] 0.062 | [6] 0.011 | givinostat 0.039 | barasertib 0.009

USP20 (UniProt Q9Y2K6)
inactive: [1] -0.005 | [2] -0.137 | [3] 0.014 | [4] -0.009 | Nexturastat A 0.209 | vemurafenib -0.034 | [5] 0.034 | [6] 0.068 | givinostat 0.03 | barasertib 0.004
